{"source": "patent US9056922B2", "about": "(HOWARD FLOREY INSTITUTE OF EX[…] MEDICINE, priority 2007, dated 2015)", "test": "general procedure: Fmoc solid-phase peptide synthesis in flow; Fmoc-Cys(Acm)-NovaSyn TGT (A-chain); Fmoc-Ser-PAC-PEG-PS (B-chain); HBTU", "data": [{"substance": "[Cys^11(Acm), Cys^24(But)]-A-chain", "values": [{"measurement": "oxidative folding yield", "setting": "oxidative folding step, on crude A-chain", "value": 27, "unit": "%"}]}, {"substance": "[Cys^11(Pyr), Cys^24(Acm)]A-Chain", "values": [{"measurement": "step yield", "setting": "late stage modification step", "value": 86.8, "unit": "%"}]}, {"substance": "[Cys^24(Acm)]A-chain/[Cys^23(Acm)] B-chain", "values": [{"measurement": "conjugation yield", "setting": "conjugation step", "value": 10.5, "unit": "%"}]}]}
